Measurements reported in PubChem BioAssay AID1508588 (Peter MacCallum Cancer Centre, 2020)
Aim: 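Which gene losses make BRAF-mutant melanoma cells more responsive to vemurafenib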 (primary screen). Cell system: human WM266.4 melanoma cells (BRAF V600 mutant). Knock-down reagent: siRNA pool against human genes, 40 nM. Timing: 96 h from transfection to read-out. Treatment: vemurafenib 300 nM (about IC25), added 48 h after transfection, for 48 h; comparison arm got DMSO vehicle only. Detection: 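Ratios to non-targeting siRNA for cell gain, counted as DAPI nuclei after minus before drug and averaged over two replicates, and for absorbance-read medium lactate per cell; both binned into fold-change classes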. Scale: cell gain with vemurafenib: higher = more cell gain than with non-targeting siRNA; lactate per cell with vemurafenib: higher = more lactate made per cell. Call rule: 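Enhancement is called by pairing each knock-down's vehicle-arm and drug-arm fold-change classes for viability or glycolysis; which class combinations qualify is not given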. Calls: active = enhances vemurafenib effect; inactive = no enhancement seen.
Here is an unselected part of about 18,000 reagents tested. 790 of them (4.4%) were called active. 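Calls rest on a combination of fold-change classes in drug and vehicle arms, not all shown here.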 No sequences are given here.

PRKACG [SID56478826]
- cell gain with vemurafenib: 0.32
- lactate per cell with vemurafenib: 0.66
- Call: inactive

CFAP61 [SID134318117]
- cell gain with vemurafenib: 0.82
- lactate per cell with vemurafenib: 0.55
- Call: inactive

RSPH6A [SID152153307]
- cell gain with vemurafenib: 0.36
- lactate per cell with vemurafenib: 1.3
- Call: inactive

CAPN10 [SID134311227]
- cell gain with vemurafenib: 0.2
- lactate per cell with vemurafenib: 1.27
- Call: inactive

NPSR1 [SID134329674]
- cell gain with vemurafenib: 0.7
- lactate per cell with vemurafenib: 0.83
- Call: inactive

NGEF [SID134314109]
- cell gain with vemurafenib: 0.56
- lactate per cell with vemurafenib: 1.44
- Call: inactive

ZZZ3 [SID152154866]
- cell gain with vemurafenib: 0.47
- lactate per cell with vemurafenib: -0.06
- Call: inactive

HEATR4 [SID134326915]
- cell gain with vemurafenib: 0.74
- lactate per cell with vemurafenib: 0.87
- Call: inactive

ATP5MC2 [SID135623876]
- cell gain with vemurafenib: 0.86
- lactate per cell with vemurafenib: 0.78
- Call: inactive

ZRANB1 [SID152149146]
- cell gain with vemurafenib: 0.53
- lactate per cell with vemurafenib: 1.67
- Call: inactive

Just “lactate per cell with vemurafenib”, for 2 of the entries above:
ATP5MC2 [SID135623876]: 0.78
ZRANB1 [SID152149146]: 1.67

Next results follow:
CD81 [SID152147852]
- cell gain with vemurafenib: 0.24
- lactate per cell with vemurafenib: 1.7
- Call: inactive

KCNA6 [SID134311634]
- cell gain with vemurafenib: 0.03
- lactate per cell with vemurafenib: 1.31
- Call: inactive

DEPDC4 [SID135623072]
- cell gain with vemurafenib: 0.76
- lactate per cell with vemurafenib: 0.82
- Call: inactive

KRT33B [SID135622104]
- cell gain with vemurafenib: 0.89
- lactate per cell with vemurafenib: 0.74
- Call: inactive

IFNB1 [SID135623798]
- cell gain with vemurafenib: 0.86
- lactate per cell with vemurafenib: 0.5
- Call: inactive

FBXO42 [SID152154235]
- cell gain with vemurafenib: 0.29
- lactate per cell with vemurafenib: 1.62
- Call: inactive
